Source: US7956084B2, “Phenyl thiophene carboxamide compounds as inhibitors of the enzyme IKK-2” (AstraZeneca AB, priority 2001, dated 2011)
Some of these results come from one statement about several compounds together.

target: T1, IKK-2 (Homo sapiens, UniProt O14920); assay: IKK-2 Filter Kinase Assay; format: biochemical; settings: 1 μM ATP, 33P ATP, 1-53 GST-IκB substrate, 21° C. for 80 minutes
T1 sequence (O14920 1-756): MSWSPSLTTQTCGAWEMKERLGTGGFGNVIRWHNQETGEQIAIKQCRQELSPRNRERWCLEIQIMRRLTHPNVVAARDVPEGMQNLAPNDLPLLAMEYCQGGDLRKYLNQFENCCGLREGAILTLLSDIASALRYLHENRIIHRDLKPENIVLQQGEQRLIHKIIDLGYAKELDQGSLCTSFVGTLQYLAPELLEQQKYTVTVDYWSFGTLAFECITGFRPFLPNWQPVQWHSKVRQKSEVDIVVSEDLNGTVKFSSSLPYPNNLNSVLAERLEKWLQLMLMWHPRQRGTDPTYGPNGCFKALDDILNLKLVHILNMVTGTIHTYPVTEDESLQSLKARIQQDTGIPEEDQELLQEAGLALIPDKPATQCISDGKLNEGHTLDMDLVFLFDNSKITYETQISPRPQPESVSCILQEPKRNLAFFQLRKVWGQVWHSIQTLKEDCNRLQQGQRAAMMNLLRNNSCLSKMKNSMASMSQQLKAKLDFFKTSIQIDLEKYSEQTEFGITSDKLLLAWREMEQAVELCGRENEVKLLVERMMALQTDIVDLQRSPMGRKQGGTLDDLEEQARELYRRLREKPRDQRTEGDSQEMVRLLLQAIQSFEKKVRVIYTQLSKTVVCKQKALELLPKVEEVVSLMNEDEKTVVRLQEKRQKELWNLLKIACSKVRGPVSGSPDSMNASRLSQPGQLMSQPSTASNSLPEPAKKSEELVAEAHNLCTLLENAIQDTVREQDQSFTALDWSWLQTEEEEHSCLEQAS

IC50, < 10 µM:
NC(=O)Nc1sc(-c2ccc(OCCN3CCCC3=O)nc2)cc1C(N)=O [Example 37, 2-[(Aminocarbonyl)amino]-5-{3-[6-(2-(1-pyrrolidin-2-one)ethoxy)]pyridine}-3-thiophenecarboxamide]
NC(=O)Nc1sc(-c2ccc(N3CCOCC3)nc2)cc1C(N)=O [Example 38, 2-[(Aminocarbonyl)amino]-5-[3-(6-(morpholin-4-yl))pyridine]-3-thiophenecarboxamide]
CN1CCN(c2ccc(-c3cc(C(N)=O)c(NC(N)=O)s3)cn2)CC1 [Example 39, 2-[(Aminocarbonyl)amino]-5-{3-[6-(4-methylpiperazin-1-yl)]pyridine}-3-thiophenecarboxamide]
NC(=O)Nc1sc(-c2ccc(-c3nnco3)cc2)cc1C(N)=O [Example 40, 2-[(Aminocarbonyl)amino]-5-(4-[1,3,4-oxadiazol-2-yl]-2-phenyl)-3-thiophenecarboxamide]
NC(=O)Nc1sc(-c2ccc(OCC3CC3)cc2)cc1C(N)=O [Example 41, 2-[(Aminocarbonyl)amino]-5-(4-cyclopropylmethoxyphenyl)-3-thiophenecarboxamide]
NC(=O)Nc1sc(-c2cccc(OCc3cscn3)c2)cc1C(N)=O [Example 42, 2-[(Aminocarbonyl)amino]-5-[3-(1,3-thiazol-4-ylmethoxy)phenyl]thiophene-3-carboxamide]
NC(=O)Nc1sc(-c2ccc(CN3CCOCC3)cc2)cc1C(N)=O [Example 43, 2-[(Aminocarbonyl)amino]-5-[4-(morpholin-4-ylmethyl)phenyl]thiophene-3-carboxamide]
NC(=O)Nc1sc(-c2cnc(N3CCOCC3)nc2)cc1C(N)=O [Example 44, 2-[(Aminocarbonyl)amino]-5-(5-[2-(N-morpholinyl)]pyrimidinyl)-3-thiophenecarboxamide]
NC(=O)Nc1sc(-c2cnc(N3CCCCC3)nc2)cc1C(N)=O [Example 45, 2-[(Aminocarbonyl)amino]-5-(5-[2-(N-piperidinyl)]pyrimidinyl)-3-thiophenecarboxamide]
NC(=O)Nc1sc(-c2cnc(N3CCCC3)nc2)cc1C(N)=O [Example 46, 2-[(Aminocarbonyl)amino]-5-(5-[2-(N-pyrrolidinyl)]pyrimidinyl)-3-thiophenecarboxamide]
CC(C)(C)OC(=O)N1CCN(c2ncc(-c3cc(C(N)=O)c(NC(N)=O)s3)cn2)CC1 [Example 47, 2-[(Aminocarbonyl)amino]-5-(5-[2-{4-(t-butyloxycarbonyl)piperazin-1-yl}]pyrimidinyl)-3-thiophenecarboxamide]
NC(=O)Nc1sc(-c2cnc(N3CCNCC3)nc2)cc1C(N)=O [Example 48, 2-[(Aminocarbonyl)amino]-5-(-5-[2-{4H-piperazin-1-yl}]pyrimidinyl)-3-thiophenecarboxamide]
CN1CCN(c2ncc(-c3cc(C(N)=O)c(NC(N)=O)s3)cn2)CC1 [Example 49, 2-[(Aminocarbonyl)amino]-5-(5-[2-{4-methylpiperazin-1-yl}]pyrimidinyl)-3-thiophenecarboxamide]
CN(C)C1CCN(c2ncc(-c3cc(C(N)=O)c(NC(N)=O)s3)cn2)C1 (centres unmarked) [Example 50, 2-[(Aminocarbonyl)amino]-5-(5-[2-(3-dimethylaminopyrrolidin-1-yl)]pyrimidinyl)-3-thiophenecarboxamide]
NC(=O)Nc1sc(-c2cnc(N3CCC[C@H]3C(N)=O)nc2)cc1C(N)=O [Example 51, 2-[(Aminocarbonyl)amino]-5-(5-[2-{2(S)-aminocarbonylpyrrolidin-1-yl}]pyrimidinyl)-3-thiophenecarboxamide]
CC(=O)N1CCN(c2ncc(-c3cc(C(N)=O)c(NC(N)=O)s3)cn2)CC1 [Example 52, 2-[(Aminocarbonyl)amino]-5-(5-[2-{4-acetylpiperazin-1-yl}]pyrimidinyl)-3-thiophenecarboxamide]
NC(=O)Nc1sc(-c2cnc(N3CCC(F)(F)CC3)nc2)cc1C(N)=O [Example 53, 2-[(Aminocarbonyl)amino]-5-(5-{2-[4,4-difluoropiperidin-yl]}pyrimidinyl)-3-thiophenecarboxamide]
NC(=O)Nc1sc(-c2cnc(N3CCC(F)(F)C3)nc2)cc1C(N)=O [Example 54]
NC(=O)Nc1sc(-c2ccc(CN3CCOCC3)s2)cc1C(N)=O [Example 55, 2-[(Aminocarbonyl)amino]-5-{2-(5-N-morpholinomethyl)thienyl}-3-thiophenecarboxamide]
NC(=O)Nc1sc(-c2ccccc2OCc2ccccc2)cc1C(N)=O [Example 56, 2-[(Aminocarbonyl)amino]-5-{2-benzyloxyphenyl}-3-thiophenecarboxamide]
NC(=O)Nc1sc(-c2ccccc2OCc2ccc(F)cc2)cc1C(N)=O [Example 57, 2-[(Aminocarbonyl)amino]-5-{2-(4-fluorophenylmethoxy)phenyl}-3-thiophenecarboxamide]
NC(=O)Nc1sc(-c2ccccc2OCCc2ccc(F)cc2)cc1C(N)=O [Example 58, 2-[(Aminocarbonyl)amino]-5-{2-(2-[4-fluorophenyl]ethoxy)phenyl}-3-thiophenecarboxamide]
NC(=O)Nc1sc(-c2ccccc2OCCc2ccc(Cl)cc2)cc1C(N)=O [Example 59, 2-[(Aminocarbonyl)amino]-5-{2-(2-[4-chlorophenyl]ethoxy)phenyl}-3-thiophenecarboxamide]
NC(=O)Nc1sc(-c2ccccc2OCCc2ccccc2)cc1C(N)=O [Example 60, 2-[(Aminocarbonyl)amino]-5-{2-(2-phenylethoxy)phenyl}-3-thiophenecarboxamide]
NC(=O)Nc1sc(-c2ccccc2OCc2ccc(Cl)cc2)cc1C(N)=O [Example 61]
NC(=O)Nc1sc(-c2ccccc2SCCN2CCOCC2)cc1C(N)=O [Example 62]
NC(=O)Nc1sc(-c2ccccc2SCCN2CCCC2)cc1C(N)=O [Example 63]
NC(=O)Nc1sc(-c2ccc(N3CCCC3)cc2)cc1C(N)=O [Example 65, 2-[(Aminocarbonyl)amino]-5-[4-(pyrrolidinyl)phenyl]-3-thiophenecarboxamide]
NC(=O)Nc1sc(-c2ccc(N3CCCCC3)cc2)cc1C(N)=O [Example 66, 2-[(Aminocarbonyl)amino]-5-[4-(piperidinyl)phenyl]-3-thiophenecarboxamide]
NC(=O)Nc1sc(-c2ccc(-n3ccnc3)cc2)cc1C(N)=O [Example 67, 2-[(Aminocarbonyl)amino]-5-[4-(N-imidazolyl)phenyl]-3-thiophenecarboxamide]
CN1CC(COc2ccc(-c3cc(C(N)=O)c(NC(N)=O)s3)cn2)CC1=O (centres unmarked) [Example 68, 2-[(Aminocarbonyl)amino]-5-[6-{(1-methylpyrrolidin-2-on-4-yl)methoxy}pyridin-3-yl]-3-thiophenecarboxamide]
COCCOCCOc1ccc(-c2cc(C(N)=O)c(NC(N)=O)s2)cc1 [Example 69, 2-[(Aminocarbonyl)amino]-5-{4-[2-(2-methoxyethoxy)ethoxy]-phenyl}-3-thiophenecarboxamide]
